Test results from publication PMC2597746.
Results are given in words; binding and its absence hold for the method and conditions named. In cells and extracts the contact can be indirect. Some results given as binding are weak or reduced against the parent protein; the word gives no strength.

By UniProt entry, the sequences of proteins in these tests, tags left out. Where a name states a change or a piece, a line headed by the entry shows the natural chain unless it says otherwise.
UniProt Q9NRW3, whole entry: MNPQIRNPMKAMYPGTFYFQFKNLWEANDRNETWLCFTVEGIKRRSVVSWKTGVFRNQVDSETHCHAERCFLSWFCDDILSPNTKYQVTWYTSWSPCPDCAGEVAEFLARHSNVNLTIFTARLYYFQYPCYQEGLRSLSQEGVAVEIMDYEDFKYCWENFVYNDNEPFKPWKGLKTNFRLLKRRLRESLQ
UniProt Q96AK3, whole entry: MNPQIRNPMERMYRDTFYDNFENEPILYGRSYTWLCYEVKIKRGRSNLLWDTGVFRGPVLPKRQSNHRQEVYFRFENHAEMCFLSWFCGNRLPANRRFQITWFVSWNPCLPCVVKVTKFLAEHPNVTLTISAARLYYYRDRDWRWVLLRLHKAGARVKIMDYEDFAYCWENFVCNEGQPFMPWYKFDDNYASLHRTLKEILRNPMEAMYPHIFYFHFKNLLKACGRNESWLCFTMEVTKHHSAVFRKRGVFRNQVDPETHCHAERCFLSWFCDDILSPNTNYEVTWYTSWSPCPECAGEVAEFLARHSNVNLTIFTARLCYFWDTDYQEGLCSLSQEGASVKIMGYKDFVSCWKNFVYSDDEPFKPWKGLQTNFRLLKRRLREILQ

Tests used:
Experiment in all cases: co-IP; HEK293T co-transfected with APOBEC3-HA and WT or mutant Vif-myc; lysates (50 mM Tris-HCl pH 7.5, 150 mM NaCl, 1% Triton X-100) at 48 h immunoprecipitated with anti-myc antibody and protein G (legend: A/G) beads, 4°C, 3 h; co-precipitated APOBEC3-HA detected by immunoblot
VifK22E-myc (HIV-1) = VifK22E-myc (HIV-1) (UniProt P12504)
VifRH41/42AA-myc (HIV-1) = VifRH41/42AA-myc (HIV-1) (UniProt P12504)
VifDR14/15AA-myc (HIV-1) = VifDR14/15AA-myc (HIV-1) (UniProt P12504)
VifW79A-myc (HIV-1) = VifW79A-myc (HIV-1) (UniProt P12504)

Row | Substance | binding (VifK22E-myc (HIV-1)) | binding (VifRH41/42AA-myc (HIV-1)) | binding (VifDR14/15AA-myc (HIV-1)) | binding (VifW79A-myc (HIV-1))
1 | A3C-HA (from UniProt Q9NRW3 1-190) | binds | binds | – | –
2 | A3DE-HA (from UniProt Q96AK3 1-386) | – | – | binds | binds
